PubChem BioAssay AID1671190 (National Center for Advancing Translational Sciences (NCATS), 2021)
The campaign covered roughly 580,000 compounds. About 6,100 (1.1%) were called active. This list was built around the results that the source calls inconclusive (neither active nor inactive); the mix of calls is not that of the screen. Calls follow the shape of the dose curve; as a rule, active = well fitted inhibition curve with a large enough effect; inconclusive = small, poorly fitted or top-dose-only effect, or another doubt; inactive = no such curve, though single readings can be large or run the other way. Where the call is inconclusive, the potency comes from a doubtful curve fit.

Chains of the proteins cited; added tags and fusions are not shown. Lines headed by an entry give the natural chain unless they say otherwise; changes in a name come on top.
UniProt P18054: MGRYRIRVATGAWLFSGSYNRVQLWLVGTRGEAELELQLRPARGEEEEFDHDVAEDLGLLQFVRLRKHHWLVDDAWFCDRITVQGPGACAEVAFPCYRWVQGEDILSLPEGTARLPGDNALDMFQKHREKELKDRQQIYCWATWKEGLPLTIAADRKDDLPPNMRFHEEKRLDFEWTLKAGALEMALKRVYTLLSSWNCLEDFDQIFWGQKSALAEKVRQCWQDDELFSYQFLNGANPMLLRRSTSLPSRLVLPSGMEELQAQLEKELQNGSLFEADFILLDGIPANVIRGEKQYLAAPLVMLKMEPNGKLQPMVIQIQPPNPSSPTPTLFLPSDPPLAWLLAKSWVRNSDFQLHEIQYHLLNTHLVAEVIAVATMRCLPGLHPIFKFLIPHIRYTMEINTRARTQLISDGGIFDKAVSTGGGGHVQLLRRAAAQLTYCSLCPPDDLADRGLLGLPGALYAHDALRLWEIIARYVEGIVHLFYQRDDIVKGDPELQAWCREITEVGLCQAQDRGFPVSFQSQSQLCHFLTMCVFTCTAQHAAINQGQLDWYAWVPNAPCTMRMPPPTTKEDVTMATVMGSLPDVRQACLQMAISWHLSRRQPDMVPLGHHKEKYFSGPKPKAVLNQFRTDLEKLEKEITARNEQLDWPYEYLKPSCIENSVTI

What follows are molecules tested against Polyunsaturated fatty acid lipoxygenase ALOX12 (Homo sapiens) (UniProt P18054) (assay: Primary qHTS assay for inhibitors of human arachidonate 12S-lipoxygenase (ALOX12): Round 2). Settings: purified 12hLO, xylenol orange hydroperoxide absorbance; activity change, negative = inhibition: at 108 µM (top of the series) unless noted.
Method in brief: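 Hydroperoxide product was detected by ferrous iron/xylenol orange as the 573 to 405 nm absorbance ratio. Arachidonic acid at 40 uM (final) was turned over for 30 min at room temperature by 150 nM human 12hLO, pH 7.0 Hepes buffer, after 15 min compound preincubation.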
% is scaled to controls: 0 for no effect and ±100 for the full control effect; potency is read from the fitted curve at half-maximal effect.

SMILES | Potency | activity change, negative = inhibition
COc1ccc(Nc2cc3c(cn2)cc(-c2cccc(C(F)(F)F)c2)n3C)c(OC)c1 | inconclusive: 50.1 µM [inhibitor, partial curve, poor fit] | –
O=C(Nc1ccn(CCCN2CCN(c3ccccc3)CC2)c(=O)n1)OCc1ccccc1 | inconclusive: 100 µM [inhibitor, single point] | –
O=C(Cc1cccs1)N(Cc1ccc2[nH]ccc2c1)C1CC1 | inactive | –
CN(C)C[C@@H]1CN(C2CCOCC2)C[C@H]1NC(=O)Cc1ccc(F)cc1 | inactive | –
Cc1cccc(OCc2ccc(-c3nc(C#N)c(N4CCC(C(N)=O)CC4)o3)o2)c1 | inconclusive: 50.1 µM [inhibitor, partial curve, poor fit] | –
CCc1cc2c(cc3c(=O)n(CCCC(=O)NCc4ccccc4Cl)nc(CC)n32)s1 | inconclusive: 31.6 µM [inhibitor, partial curve, poor fit] | –
Cc1ccc(NC(=O)N2CCC(CCNC(=O)c3n[nH]c4ccccc34)CC2)cc1F | inactive | –
Cc1ccc2c(CC(=O)N3CCN(S(=O)(=O)c4ccccc4)CC3)coc2c1 | inconclusive: 10 µM [inhibitor, full curve, poor fit] | –
CC(C#N)OC(=O)c1cc(C(C)C)nc2ccccc12 (configuration not stated) | inactive | –
CCn1nc(NC(=O)Cc2ccc(OC)cc2)c2cc3cccc(C)c3nc21 | inactive | –
COCC1CN(C2CCC2)CC12CCN(C(=O)c1ccccc1OC)CC2 (configuration not stated) | inactive | –
O=C1/C(=C/c2cccnc2)Cc2c(Cl)cccc21 | inconclusive: 5.62 µM [inhibitor, full curve, poor fit] | –
C=CCn1c(O)c(N=NC(=O)CNC(=O)/C=C/c2ccco2)c2ccccc21 | inconclusive: 12.6 µM [inhibitor, full curve, poor fit] | –
COCCN(CCOC)S(=O)(=O)c1ccc(C(=O)Nc2nnc(C)o2)cc1 | inactive | –
COc1ccc2c(c1)c(C(=O)O)c(C)n2-c1ccc(I)cc1 | inactive | –
CCOC(=O)c1cccc(NC(=O)CC2C(=O)N(c3ccc(F)cc3)C(=O)N2C(C)C)c1 (configuration not stated) | – | inconclusive: -41.8% [inhibitor]
COC(=O)CCCCCN1C(=O)/C(=C\c2ccncc2)SC1=S | inconclusive: 50.1 µM [inhibitor, partial curve, poor fit] | –
Cc1ccc(-c2csc3ncnc(SCC(=O)O)c23)cc1 | inconclusive: 70.8 µM [inhibitor, single point] | –
Cc1cc(C)c2nc(-c3ccco3)cc(C(=O)O)c2c1 | inconclusive: 50.1 µM [inhibitor, partial curve, poor fit] | –
COc1cccc(C2C=C(c3ccc(C)cc3)Nc3ncnn32)c1 (configuration not stated) | inconclusive: 20 µM [inhibitor, full curve, poor fit] | –
Cc1ccc(-c2nc3ncccc3o2)cc1NC(=O)COc1ccc(C(C)C)cc1 | – | inconclusive: -45.4% [inhibitor]
Oc1ccc(Cl)cc1-c1cc(-c2ccccc2)n[nH]1 | inconclusive: 28.2 µM [inhibitor, partial curve, poor fit] | –
Nc1c(C(=O)Nc2ccc(Cl)cc2)sc2nc(N3CCOCC3)c3c(c12)CCCC3 | inconclusive: 2.51 µM [inhibitor, full curve, poor fit] | –

SMILES | Potency | activity change, negative = inhibition
COc1ccc(OCC(=O)Nc2cc3c(cc2C(=O)O)OCCCO3)cc1 | inconclusive: 79.4 µM [inhibitor, partial curve, poor fit] | –
COc1ccc(C2=NNC(=O)C2(C)Br)cc1 (configuration not stated) | active: 44.7 µM | –
Cc1occc1C(=O)Nc1ccc(SC2CCCC2)cc1 | inconclusive: 25.1 µM [inhibitor, partial curve, poor fit] | –
CS(=O)(=O)c1ccc(Cn2c3c(c4cc(F)cc(F)c42)CCC[C@H]3CC(=O)O)cc1 | inactive | –
COC1CN(C2CCN(C(=O)CC(C)C)CC2)C12CCOCC2 (configuration not stated) | inactive | –
O=c1[nH]c(SCc2nc3ccccc3c(=O)n2-c2ccccc2C(F)(F)F)nc2ccccc12 | inactive | –
O=C(Nc1ccc2ccccc2c1)Nc1ccc2snnc2c1 | inconclusive: 12.6 µM [inhibitor, full curve, poor fit] | –
Cc1cc(OCC(=O)Nc2ccc(N3CCCC3)cc2)cc(C)c1Cl | inconclusive: 5.62 µM [inhibitor, partial curve, poor fit] | –
CCOc1ccc(-c2nc(CS(=O)Cc3cc(C)ccc3C)cs2)cc1OC (configuration not stated) | inconclusive: 28.2 µM [inhibitor, partial curve, poor fit] | –
O=S(=O)(c1ccc(C(F)(F)F)cc1)N1CCCc2nc(-c3ccccc3)ccc21 | inactive | –
COc1ccc(CN2CC(Oc3ccccc3C(=O)NCc3ccccc3)C2)c(OC)c1 | inactive | –
COc1ccc(OC(=O)c2ccc(Br)cc2)c(C(C)=O)c1 | inconclusive: 44.7 µM [inhibitor, partial curve, poor fit] | –
O=S(=O)(c1cccs1)N1CCC[C@@H]1c1noc2ccccc12 | inactive | –
COc1cccc(NC(=O)C2CCN(c3ccc4nnc(C(C)C)n4n3)CC2)c1 | inconclusive: 126 µM [inhibitor, single point] | –
CC(C)n1nc(C(=O)Nc2nc(-c3ccc(F)cc3)cs2)c2ccccc2c1=O | inactive | –
COc1ccc(OC)c(CCNC(=O)c2cc3c(-c4ccccc4F)nn(C)c3s2)c1 | inactive | –
Cc1cccc(C(=O)OCC(=O)c2csc(N3CCCCC3)n2)c1[N+](=O)[O-] | inconclusive: 35.5 µM [inhibitor, partial curve, poor fit] | –
S=C(NCCCCNC(=S)NCc1ccccc1)NCc1ccccc1 | inconclusive: 28.2 µM [inhibitor, partial curve, poor fit] | –
Fc1ccccc1Cn1nnc(-c2ccc3c(c2)OCO3)n1 | inconclusive: 15.8 µM [inhibitor, full curve, poor fit] | –
Cn1c(NC(=O)c2ccccc2)nc2ccccc21 | inconclusive: 0.501 µM [inhibitor, full curve, poor fit] | –
COc1ccc(C)cc1NS(=O)(=O)c1ccc2c(c1)[C@H]1C=CC[C@H]1[C@@H](c1cccc(Cl)c1)N2 | – | inconclusive: -30.2% [inhibitor]
O=C1/C(=C\c2cc([N+](=O)[O-])ccc2O)SC(=S)N1Cc1ccc(Cl)cc1 | inactive | –
CC(=O)Nc1ccc(C(/C=C/c2ccccc2)Cc2ccccc2)cc1 (configuration not stated) | inconclusive: 28.2 µM [inhibitor, single point] | –

Copied from the list.
Potency with CC(C)n1nc(C(=O)Nc2nc(-c3ccc(F)cc3)cs2)c2ccccc2c1=O reads inactive
Potency with COc1ccc(OC(=O)c2ccc(Br)cc2)c(C(C)=O)c1 reads inconclusive: 44.7 µM [inhibitor, partial curve, poor fit]
Potency with O=c1[nH]c(SCc2nc3ccccc3c(=O)n2-c2ccccc2C(F)(F)F)nc2ccccc12 reads inactive

Later entries.

SMILES | Potency | activity change, negative = inhibition
Fc1cccc(/C=N/Nc2cc(C(F)(F)F)ccc2Cl)c1 | inconclusive: 50.1 µM [inhibitor, partial curve, poor fit] | –
Cc1ccc(S(=O)(=O)/N=C(/Nc2ccc([N+](=O)[O-])cc2)c2ccccc2)cc1 | active: 44.7 µM | –
Cc1noc(C)c1-c1cc2c(c(-c3ccccc3O)c1)C(=O)N(C)C2=O | inconclusive: 126 µM [inhibitor, partial curve, poor fit] | –
CCOC(=O)c1sc(=S)n2c1[nH]c(=O)c1ccc(C(=O)OC)cc12 | active: 15.8 µM | –
Cc1ccc(S(=O)(=O)N/N=C/c2cccn2-c2ccc(Cl)cc2)cc1 | inconclusive: 20 µM [inhibitor, partial curve, poor fit] | –
COc1cc(C(=S)N2CCOCC2)ccc1OC(=O)Cc1ccc(F)cc1 | inactive | –
COc1cc(NC(=O)CN2C(=O)NC3(CCC(C)CC3)C2=O)cc(OC)c1 (configuration not stated) | inconclusive: 79.4 µM [inhibitor, partial curve] | –
CCOc1cc(C(=O)Nc2ccc3oc(-c4ccc(CC)cc4)nc3c2)cc(OCC)c1OCC | inactive | –
Cc1ccc(NC(=O)CN2C(=O)NC3(CCCC3)C2=O)cc1S(=O)(=O)N1CCCCC1 | inconclusive: 112 µM [inhibitor, single point] | –
Cc1cc(C)cc(NC(=O)CSCn2nnc3c(=O)[nH]c(Cc4ccc(F)cc4)nc32)c1 | inconclusive: 25.1 µM [inhibitor, partial curve, poor fit] | –
CCCOc1cccc(C(=O)NC(=S)Nc2ccc(N3CCN(C)CC3)cc2)c1 | inconclusive: 35.5 µM [inhibitor, partial curve] | –
COc1ccccc1CNC(=O)C(NS(=O)(=O)c1cccc2nsnc12)C(C)C (configuration not stated) | inconclusive: 31.6 µM [inhibitor, partial curve, poor fit] | –
COc1cc(NC(=O)CN2C(=O)NC3(CCC(C(C)(C)C)CC3)C2=O)cc(OC)c1OC (configuration not stated) | inconclusive: 11.2 µM [inhibitor, full curve, poor fit] | –
CCOC(=O)c1sc2cc([N+](=O)[O-])cc(SCC(=O)OC)c2c1N | inconclusive: 25.1 µM [inhibitor, partial curve] | –
CC(=O)C1=C(O)C(=O)N(C)C1c1ccccc1F (configuration not stated) | inconclusive: 44.7 µM [inhibitor, partial curve, poor fit] | –
O=C(NCC1CCCO1)c1cncc(Br)c1 (configuration not stated) | inactive | –
O=C(Nc1ccc(Oc2ccc(Cl)cc2)cc1)c1nc2ccccc2nc1N1CCOCC1 | inactive | –
COc1ccc(OC)c(CN2CC[C@@H]3OCC(=O)N(Cc4ccccc4)[C@H]3CC2)c1 | inconclusive: 100 µM [inhibitor, partial curve, poor fit] | –
CCOC(=O)c1cc(-c2ccc(F)cc2)n(CCC(=O)NC2CCN(Cc3ccccc3)CC2)c1C | inactive | –
CN(CCc1ccccn1)Cc1ccc(Cl)cc1Cl | inconclusive: 0.199 µM [inhibitor, full curve, poor fit] | –
Cc1nccn1-c1ccc(NC(=O)[C@H]2O[C@@H](n3ccc(N)nc3=O)[C@H](O)[C@@H]2O)cc1 | inconclusive: 100 µM [inhibitor, single point] | –
